This is one part of the list.
B1: il10ra_site1_sap_16_mot_HHH_b2_05343_000000235_0001_19_35_H_._HHH_b1_02070_af2_0001_0000300019_0000002_1_0001 (protein)
chain: SSSSDEEKEELEELLEEIRRLLEEGNPEEASRLLIEVAELAAELGDEEALRKVRELIQEVFSSSS
B2: il10ra_site1_sap_31_mot_HHH_b2_04274_000000146_0001_1_19_H_._HHH_b2_07522_af2_0001_0000400034_0000001_0_0001_af2pred_0001 (protein)
chain: SSSSSREEEALERLLRAARELYEQGDPELARLALKIAARLAEALGNEELLEELRQALEELSSSSS
B3: il10ra_site1_normal_mot_HHH_b2_07784_af2_000000103_0001_19_36_H_._HHH_b2_07681_af2_0001_0000500032_0000001_0 (protein)
chain: SSSSDEEYEEVKKLIERIVELIRNGNPEEAQELLERLRELAEELNTPALEFVVRLLERAINSSSS
B4: il10ra_site1_normal_mot_HHH_b2_07145_000000158_0001_24_40_H_._HHH_b1_08095_0001_0000300042_0000001_0 (protein)
chain: SSSSEEAFELIRRLIEEVSELLREGNREEAEKVIEEAEEIAEKYNNQALRFSVEHLLRLVRSSSS
B5: il10ra_site1_sap_16_mot_HHH_b2_02497_000000220_0001_1_20_H_._HHH_b1_07197_0001_0000500045_0000001_0_0001 (protein)
chain: SSSSDEEEAEEVFERYREELEEVAKKDAQKAFEALEEAIKLLLELGDDEAAHRIARFFVRLSSSS
B6: il10ra_site1_sap_26_mot_HHH_b2_02053_af2_000000006_0001_3_19_H_._HHH_b1_08316_0001_0000600031_0000001_0_0001 (protein)
chain: SSSSSDEEEHEEVEELLEKAEKIEDPEEVMKLLLRALHIAIQINDPEALQAVWRVVHKLASSSSS
B7: il10ra_site1_normal_mot_HHH_b1_04514_000000156_0001_1_18_H_._HHH_b1_03241_0001_0000200016_0000001_0 (protein)
chain: SSSSYEEVKELIERIIQLAREGNPEEAEEVLRELERLAEELNNPAVRFVVRLLEEVIENTSSSSS
B8: il10ra_site1_normal_mot_HHH_b2_04013_af2_000000040_0001_22_39_H_._HHH_b2_07593_0001_0000500012_0000001_0 (protein)
chain: SSSSDAEEEVRRLLEQVRELLEEGDAEKAFRLLREAIEVAAQSRDPEAEKLVRELLEELFRSSSS
B9: il10ra_site1_sap_24_mot_2c1a291787c6f40772924d4e9068d803_0001_af2_000000187_0001_34_48_H_._HHH_b2_01792_0001_0000100012_0000001_0_0001_af2pred_0001 (protein)
chain: SSSSDERAVKFLIEAAKHLEELGNPELAERALRLALLAAKWANNPELEEEVQELLEELRGSSSSS
B10: il10ra_site1_sap_16_mot_HHH_b1_06914_000000280_0001_1_18_H_._HHH_b1_06848_0001_0000100006_0000001_0_0001_af2pred_dldesign_0_af2pred (protein)
chain: SSSSSDLVATLKRHIANAKELYERGYPEEAKRALEYALAEARALGLEELEAEIEKLLEELSSSSS

Target: il10ra, Q13651
Test: yeast display titration

Apparent Kd, inactive:
B1 no binding seen
B2 no binding seen
B3 no binding seen
B4 no binding seen
B5 no binding seen
B6 no binding seen
B7 no binding seen
B8 no binding seen
B9 no binding seen
B10 no binding seen

Source: PMC10163288
